Data as given in the supplement of paper PMC10849652.
This is one part of the list.

Chains of the proteins cited; added tags and fusions are not shown. Lines headed by an entry give the natural chain unless they say otherwise; changes in a name come on top.
UniProt O15533, whole entry, looked up: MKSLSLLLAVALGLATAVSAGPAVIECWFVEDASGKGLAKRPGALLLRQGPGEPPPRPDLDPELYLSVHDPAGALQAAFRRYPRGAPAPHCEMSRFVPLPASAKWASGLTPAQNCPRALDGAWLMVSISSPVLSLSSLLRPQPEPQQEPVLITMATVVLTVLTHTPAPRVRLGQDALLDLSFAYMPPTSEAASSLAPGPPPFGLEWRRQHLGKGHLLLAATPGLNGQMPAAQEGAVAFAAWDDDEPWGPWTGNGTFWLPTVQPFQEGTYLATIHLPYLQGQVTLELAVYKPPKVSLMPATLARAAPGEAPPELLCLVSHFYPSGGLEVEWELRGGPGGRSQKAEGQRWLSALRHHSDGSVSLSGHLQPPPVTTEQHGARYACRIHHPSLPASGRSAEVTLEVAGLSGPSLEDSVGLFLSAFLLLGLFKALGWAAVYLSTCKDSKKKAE
UniProt Q5QJ74: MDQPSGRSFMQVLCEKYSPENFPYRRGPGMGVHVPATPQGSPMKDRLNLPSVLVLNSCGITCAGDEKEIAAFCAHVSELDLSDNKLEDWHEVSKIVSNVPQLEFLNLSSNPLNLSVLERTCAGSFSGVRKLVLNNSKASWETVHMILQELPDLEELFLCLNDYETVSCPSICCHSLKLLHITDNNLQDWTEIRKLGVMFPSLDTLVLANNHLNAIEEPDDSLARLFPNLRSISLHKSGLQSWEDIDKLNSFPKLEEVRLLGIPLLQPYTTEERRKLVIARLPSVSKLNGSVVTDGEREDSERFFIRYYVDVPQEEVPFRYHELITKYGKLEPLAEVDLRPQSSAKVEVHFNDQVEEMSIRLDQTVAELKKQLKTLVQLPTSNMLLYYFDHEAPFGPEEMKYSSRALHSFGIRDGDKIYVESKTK
UniProt Q8NDF8: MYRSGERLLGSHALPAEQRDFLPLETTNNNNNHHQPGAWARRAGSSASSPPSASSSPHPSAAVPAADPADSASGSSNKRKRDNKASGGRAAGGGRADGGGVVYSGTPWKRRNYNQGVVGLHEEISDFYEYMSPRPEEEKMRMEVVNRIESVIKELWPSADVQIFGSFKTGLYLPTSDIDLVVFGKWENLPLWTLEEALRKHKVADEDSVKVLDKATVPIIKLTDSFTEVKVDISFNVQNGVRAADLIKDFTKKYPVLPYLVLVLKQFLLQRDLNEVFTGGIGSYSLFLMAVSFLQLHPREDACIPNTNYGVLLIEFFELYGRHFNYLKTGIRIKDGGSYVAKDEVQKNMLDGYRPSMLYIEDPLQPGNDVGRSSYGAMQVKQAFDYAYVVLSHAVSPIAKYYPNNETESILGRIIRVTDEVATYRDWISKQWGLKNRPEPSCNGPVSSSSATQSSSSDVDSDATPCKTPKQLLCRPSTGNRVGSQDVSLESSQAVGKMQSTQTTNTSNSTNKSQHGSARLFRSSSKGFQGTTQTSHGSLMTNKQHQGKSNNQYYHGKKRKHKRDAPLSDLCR
UniProt Q9UGU0: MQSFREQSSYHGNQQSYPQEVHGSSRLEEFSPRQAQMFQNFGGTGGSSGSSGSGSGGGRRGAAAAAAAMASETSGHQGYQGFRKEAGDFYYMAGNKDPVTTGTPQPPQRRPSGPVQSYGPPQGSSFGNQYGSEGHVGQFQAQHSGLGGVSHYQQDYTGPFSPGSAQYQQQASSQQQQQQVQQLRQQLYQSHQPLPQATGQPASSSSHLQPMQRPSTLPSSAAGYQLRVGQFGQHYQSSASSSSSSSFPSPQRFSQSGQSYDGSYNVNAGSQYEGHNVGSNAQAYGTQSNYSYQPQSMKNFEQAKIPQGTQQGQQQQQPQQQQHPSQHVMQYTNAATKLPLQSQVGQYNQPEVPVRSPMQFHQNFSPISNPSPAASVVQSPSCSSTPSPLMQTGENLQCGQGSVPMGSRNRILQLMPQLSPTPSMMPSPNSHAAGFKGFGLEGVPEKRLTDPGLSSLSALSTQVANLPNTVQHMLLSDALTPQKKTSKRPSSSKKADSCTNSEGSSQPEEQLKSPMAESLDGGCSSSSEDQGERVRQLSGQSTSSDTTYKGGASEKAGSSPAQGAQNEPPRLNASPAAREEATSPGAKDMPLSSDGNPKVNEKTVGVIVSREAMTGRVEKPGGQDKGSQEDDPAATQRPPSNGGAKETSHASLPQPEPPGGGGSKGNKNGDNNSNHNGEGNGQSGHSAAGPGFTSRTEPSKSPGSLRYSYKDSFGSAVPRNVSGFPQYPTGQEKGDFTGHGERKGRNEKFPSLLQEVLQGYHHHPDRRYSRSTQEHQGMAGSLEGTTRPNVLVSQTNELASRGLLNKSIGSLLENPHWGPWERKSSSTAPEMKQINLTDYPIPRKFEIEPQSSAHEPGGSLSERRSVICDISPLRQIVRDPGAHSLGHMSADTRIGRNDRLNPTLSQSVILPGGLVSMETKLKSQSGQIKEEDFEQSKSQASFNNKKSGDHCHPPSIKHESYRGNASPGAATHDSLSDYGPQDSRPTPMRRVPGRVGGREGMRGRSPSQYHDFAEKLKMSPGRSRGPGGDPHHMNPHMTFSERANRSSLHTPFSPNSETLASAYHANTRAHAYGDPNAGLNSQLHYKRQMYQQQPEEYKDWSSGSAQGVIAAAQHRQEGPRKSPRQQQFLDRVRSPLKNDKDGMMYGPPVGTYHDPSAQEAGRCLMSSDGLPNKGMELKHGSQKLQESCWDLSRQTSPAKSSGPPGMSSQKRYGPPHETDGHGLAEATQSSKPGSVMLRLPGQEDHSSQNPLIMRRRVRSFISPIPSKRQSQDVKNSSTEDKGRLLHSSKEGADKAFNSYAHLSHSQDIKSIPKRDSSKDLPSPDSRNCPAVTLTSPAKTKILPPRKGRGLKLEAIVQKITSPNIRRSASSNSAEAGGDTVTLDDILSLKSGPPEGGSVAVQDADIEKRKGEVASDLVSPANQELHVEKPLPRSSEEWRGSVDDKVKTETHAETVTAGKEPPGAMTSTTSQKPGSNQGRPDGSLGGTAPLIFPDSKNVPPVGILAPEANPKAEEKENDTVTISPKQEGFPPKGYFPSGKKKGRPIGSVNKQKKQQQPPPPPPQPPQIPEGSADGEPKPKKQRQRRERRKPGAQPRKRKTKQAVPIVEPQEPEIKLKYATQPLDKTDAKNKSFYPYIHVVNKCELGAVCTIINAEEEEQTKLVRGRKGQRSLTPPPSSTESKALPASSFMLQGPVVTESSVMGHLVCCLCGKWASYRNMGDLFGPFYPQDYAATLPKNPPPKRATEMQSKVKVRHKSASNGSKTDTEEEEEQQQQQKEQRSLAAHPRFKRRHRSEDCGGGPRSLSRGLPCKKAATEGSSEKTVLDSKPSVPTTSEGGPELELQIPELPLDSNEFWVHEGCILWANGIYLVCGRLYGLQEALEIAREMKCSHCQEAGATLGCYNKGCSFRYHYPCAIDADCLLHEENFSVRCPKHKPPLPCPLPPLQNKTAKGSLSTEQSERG
UniProt Q13428: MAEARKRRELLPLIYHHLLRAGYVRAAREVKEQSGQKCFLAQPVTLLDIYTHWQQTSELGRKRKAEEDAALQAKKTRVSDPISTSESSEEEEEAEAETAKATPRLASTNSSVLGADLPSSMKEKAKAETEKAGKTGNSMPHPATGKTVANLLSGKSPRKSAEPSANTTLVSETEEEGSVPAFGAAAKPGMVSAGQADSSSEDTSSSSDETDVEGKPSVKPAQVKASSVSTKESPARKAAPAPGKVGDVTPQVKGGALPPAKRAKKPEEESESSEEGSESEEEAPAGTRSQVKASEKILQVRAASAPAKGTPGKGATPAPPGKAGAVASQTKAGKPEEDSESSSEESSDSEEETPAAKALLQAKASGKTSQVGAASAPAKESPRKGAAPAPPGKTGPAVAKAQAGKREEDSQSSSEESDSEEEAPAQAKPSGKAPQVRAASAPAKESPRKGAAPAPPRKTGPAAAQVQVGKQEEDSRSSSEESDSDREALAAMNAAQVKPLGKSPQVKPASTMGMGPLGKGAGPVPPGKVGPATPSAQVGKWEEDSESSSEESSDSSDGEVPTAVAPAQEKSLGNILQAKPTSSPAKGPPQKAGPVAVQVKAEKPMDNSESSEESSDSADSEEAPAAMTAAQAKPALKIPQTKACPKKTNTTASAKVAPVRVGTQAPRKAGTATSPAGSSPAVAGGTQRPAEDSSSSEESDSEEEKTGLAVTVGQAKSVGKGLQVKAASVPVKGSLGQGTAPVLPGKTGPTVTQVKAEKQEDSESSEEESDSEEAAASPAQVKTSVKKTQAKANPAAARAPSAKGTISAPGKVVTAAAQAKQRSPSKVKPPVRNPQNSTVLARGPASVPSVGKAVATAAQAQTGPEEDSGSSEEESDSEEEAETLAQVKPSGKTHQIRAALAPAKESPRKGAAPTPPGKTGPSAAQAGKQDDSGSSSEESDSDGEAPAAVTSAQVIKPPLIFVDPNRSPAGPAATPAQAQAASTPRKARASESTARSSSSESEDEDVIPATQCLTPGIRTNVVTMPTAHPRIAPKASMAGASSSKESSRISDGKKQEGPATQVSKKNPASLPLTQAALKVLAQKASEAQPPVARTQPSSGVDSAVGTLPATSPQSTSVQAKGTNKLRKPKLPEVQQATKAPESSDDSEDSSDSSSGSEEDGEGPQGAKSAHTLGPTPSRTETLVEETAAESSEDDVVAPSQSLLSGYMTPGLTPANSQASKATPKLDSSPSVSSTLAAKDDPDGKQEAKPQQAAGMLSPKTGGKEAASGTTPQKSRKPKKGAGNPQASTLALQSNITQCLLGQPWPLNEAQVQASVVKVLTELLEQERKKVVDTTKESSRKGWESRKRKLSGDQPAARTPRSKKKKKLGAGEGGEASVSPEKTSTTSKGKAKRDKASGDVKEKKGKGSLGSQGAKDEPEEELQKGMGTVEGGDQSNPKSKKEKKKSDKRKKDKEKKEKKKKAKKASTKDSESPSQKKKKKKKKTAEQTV
UniProt Q7Z6L1: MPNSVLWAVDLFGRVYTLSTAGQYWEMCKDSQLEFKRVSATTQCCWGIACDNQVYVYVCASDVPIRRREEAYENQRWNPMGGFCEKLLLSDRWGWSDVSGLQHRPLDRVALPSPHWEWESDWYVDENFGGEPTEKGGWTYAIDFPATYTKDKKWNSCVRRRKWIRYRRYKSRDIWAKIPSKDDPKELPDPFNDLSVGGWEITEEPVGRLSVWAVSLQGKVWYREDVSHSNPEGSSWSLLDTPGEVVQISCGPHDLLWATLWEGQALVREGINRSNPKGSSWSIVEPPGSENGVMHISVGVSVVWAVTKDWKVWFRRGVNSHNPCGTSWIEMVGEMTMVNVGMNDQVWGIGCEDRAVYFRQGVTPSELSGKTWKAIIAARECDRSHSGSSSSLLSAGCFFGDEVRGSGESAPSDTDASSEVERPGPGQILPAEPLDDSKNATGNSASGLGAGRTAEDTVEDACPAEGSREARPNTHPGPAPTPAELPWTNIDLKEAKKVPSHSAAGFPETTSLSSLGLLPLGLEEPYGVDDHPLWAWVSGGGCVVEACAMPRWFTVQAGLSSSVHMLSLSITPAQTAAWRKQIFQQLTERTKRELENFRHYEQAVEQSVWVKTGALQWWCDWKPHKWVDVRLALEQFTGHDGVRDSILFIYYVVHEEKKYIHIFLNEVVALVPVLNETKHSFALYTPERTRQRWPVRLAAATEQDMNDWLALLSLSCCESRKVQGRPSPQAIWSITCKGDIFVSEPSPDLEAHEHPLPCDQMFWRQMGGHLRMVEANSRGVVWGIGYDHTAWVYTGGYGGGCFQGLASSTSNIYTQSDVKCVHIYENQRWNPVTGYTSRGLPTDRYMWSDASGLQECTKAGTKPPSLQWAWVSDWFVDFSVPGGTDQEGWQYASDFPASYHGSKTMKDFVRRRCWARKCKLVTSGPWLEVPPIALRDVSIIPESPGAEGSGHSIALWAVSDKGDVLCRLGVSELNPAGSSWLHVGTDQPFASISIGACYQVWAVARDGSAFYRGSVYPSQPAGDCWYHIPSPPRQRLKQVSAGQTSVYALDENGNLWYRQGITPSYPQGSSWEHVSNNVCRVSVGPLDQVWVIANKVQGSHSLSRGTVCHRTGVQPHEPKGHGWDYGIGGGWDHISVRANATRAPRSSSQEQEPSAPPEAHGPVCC
UniProt P20061: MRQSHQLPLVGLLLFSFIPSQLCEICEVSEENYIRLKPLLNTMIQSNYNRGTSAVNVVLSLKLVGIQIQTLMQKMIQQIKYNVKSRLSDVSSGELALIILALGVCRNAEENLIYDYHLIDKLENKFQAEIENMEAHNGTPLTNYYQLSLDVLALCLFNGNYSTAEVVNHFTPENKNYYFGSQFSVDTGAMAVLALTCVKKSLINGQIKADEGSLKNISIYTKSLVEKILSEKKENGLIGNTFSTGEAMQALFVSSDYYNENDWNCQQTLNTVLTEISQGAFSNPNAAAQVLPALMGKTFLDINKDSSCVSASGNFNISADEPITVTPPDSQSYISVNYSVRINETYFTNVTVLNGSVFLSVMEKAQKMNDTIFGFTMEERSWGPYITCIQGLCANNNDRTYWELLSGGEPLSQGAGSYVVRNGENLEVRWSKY

Experiments:
Experiment in all cases: log2 fold change, soluble protein after heating vs DMSO (PISA); higher = thermal stabilisation; K562 lysate, 10 uM; active = over 0.2 and 3.5 SD of the protein, either way, in both replicates (recomputed)
vemurafenib = compound: CCCS(=O)(=O)Nc1ccc(F)c(C(=O)c2c[nH]c3ncc(-c4ccc(Cl)cc4)cc23)c1F [vemurafenib]
Method in brief: (§1)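 Pellets of K562 cells were dounce-homogenised in PBS pH 7.4 with 1 mM MgCl2, and the crude extract was held at 1 mg/mL protein for a 30 min treatment with 10 μM compound. Aliquots were heated for 3 min over 48°C-58°C and pooled before NP-40 was added to 0.5% at 4°C. The supernatant from 21,000xg for 90 min was quantified by TMTpro 16plex LC-MS/MS with channel sums equalised. Values are reported from duplicates as log-two fold change in thermal stability relative to solvent controls.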

[1] = compound: CC[C@@H]1C(=O)N(C)c2cnc(Nc3ccc(C(=O)NC4CCN(C)CC4)cc3OC)nc2N1C1CCCC1
Method in brief: as §1

saracatinib = compound: CN1CCN(CCOc2cc(OC3CCOCC3)c3c(Nc4c(Cl)ccc5c4OCO5)ncnc3c2)CC1 [saracatinib]
Method in brief: as §1

sotrastaurin = compound: CN1CCN(c2nc(C3=C(c4c[nH]c5ccccc45)C(=O)NC3=O)c3ccccc3n2)CC1 [sotrastaurin]
Method in brief: as §1

barasertib = compound: CCN(CCCOc1ccc2c(Nc3cc(CC(=O)Nc4cccc(F)c4)[nH]n3)ncnc2c1)CCOP(=O)(O)O [barasertib]
Method in brief: as §1

[2] = compound: CCn1cc(-c2ccnc3[nH]c(-c4cccc(CN(C)C)c4)cc23)c(-c2ccc(NC(=O)N(C)C)cc2)n1
Method in brief: as §1

[3] = compound: CN1CCC(CNc2ccc3ncc(-c4cccc(OC(F)(F)F)c4)n3n2)CC1
Method in brief: as §1

[4] = compound: CCCS(=O)(=O)Nc1ccc(F)c(C(=O)c2c[nH]c3ncc(Cl)cc23)c1F
Method in brief: as §1

volasertib = compound: CC[C@@H]1C(=O)N(C)c2cnc(Nc3ccc(C(=O)N[C@H]4CC[C@H](N5CCN(CC6CC6)CC5)CC4)cc3OC)nc2N1C(C)C [volasertib]
Method in brief: as §1

[5] = compound: CCn1c(C(=O)N(C2CC2)C2CC2)cc2c3c(ncn3C)c(Nc3cc(C)n(C)n3)nc21
Method in brief: as §1

Measured: log2 fold change

TASOR (UniProt Q9UK61)
inactive: vemurafenib 0 | [1] 0.047 | saracatinib 0.012 | sotrastaurin 0.201

TEAD1 (UniProt P28347)
inactive: vemurafenib 0.057 | barasertib 0.06 | [1] 0.099 | [2] -0.143 | [3] 0.074 | saracatinib 0.391

TAGLN3 (UniProt Q9UI15)
inactive: vemurafenib 0.024 | [4] 0.015 | [1] 0.037 | volasertib -0.097 | [2] -0.327 | [3] 0.075

TEFM (UniProt Q96QE5)
inactive: vemurafenib 0.131 | [4] 0.022 | [1] -0.021 | volasertib 0.037 | [5] -0.135 | [2] 0.026 | [3] -0.116 | saracatinib -0.037 | sotrastaurin 0.041

TENT5C (UniProt Q5VWP2)
inactive: vemurafenib 0.055 | [4] 0.055 | barasertib 0.148 | [1] -0.028 | volasertib 0.104 | [5] -0.008 | [2] 0.021 | [3] 0.03 | sotrastaurin -0.015

TCF25 (UniProt Q9BQ70)
inactive: vemurafenib 0.069 | barasertib 0.028 | [1] 0.129 | [5] 0.045 | [2] -0.037 | [3] -0.057 | saracatinib -0.007 | sotrastaurin 0.01

TAPBP isoform 3 (UniProt O15533)
inactive: vemurafenib 0.048 | barasertib 0.263 | [1] -0.068 | saracatinib 0.062 | sotrastaurin -0.017

TCHP (UniProt Q9BT92)
inactive: vemurafenib 0.127 | barasertib 0.102 | [1] 0.014 | [5] 0.075 | [2] -0.04 | [3] 0.001 | saracatinib 0.108 | sotrastaurin 0.007

TBCEL (UniProt Q5QJ74)
inactive: vemurafenib -0.022 | barasertib -0.385 | [5] -0.087 | [2] -0.21 | [3] -0.144 | saracatinib -0.018

TBKBP1 (UniProt A7MCY6)
inactive: barasertib 0.101

TBXA2R (UniProt P21731)
inactive: barasertib -0.007 | [5] -0.045 | [2] -0.077 | [3] 0.012 | sotrastaurin 0.013

TBCD, A0A0J9YWI5
inactive: [1] -0.067 | sotrastaurin -0.078

TASP1 (UniProt Q9H6P5)
inactive: [4] 0.028 | barasertib 0.13 | [1] -0.082 | volasertib -0.02 | [5] -0.047 | saracatinib -0.082 | sotrastaurin 0.02

TENM4 (UniProt Q6N022)
active: [2] 0.534
inactive: [4] -0.205 | barasertib 0.104 | volasertib -0.069 | [3] -0.257 | sotrastaurin 0

TCF3 isoform 2 (UniProt P15923)
inactive: [5] 0.065 | sotrastaurin 0.043

TGDS (UniProt O95455)
inactive: [4] 0.039 | barasertib -0.017 | volasertib -0.041 | [2] -0.09 | [3] -0.145 | sotrastaurin 0.111

TBC1D10A (UniProt Q9BXI6)
inactive: [4] 0.025 | barasertib -0.024 | volasertib 0.051 | [5] -0.07 | [2] -0.018 | [3] 0.054 | saracatinib 0.084 | sotrastaurin 0.081

TAX1BP1 isoform 2 (UniProt Q86VP1)
inactive: barasertib -0.001 | [5] 0.005

TCTN3 (UniProt Q6NUS6)
inactive: [2] -0.046 | [3] 0.076 | sotrastaurin 0.117

TET2 (UniProt Q6N021)
inactive: barasertib -0.024 | [1] -0.04 | saracatinib -0.012 | sotrastaurin 0.229

TBP (UniProt P20226)
inactive: [4] 0.005 | barasertib 0.006 | [1] 0.021 | volasertib 0 | [5] -0.114 | [2] -0.078 | [3] 0.084 | saracatinib 0.038 | sotrastaurin 0.046

TEDC2 (UniProt Q7L2K0)
inactive: [4] 0.109 | volasertib 0.151 | [2] 0.018 | [3] -0.033 | sotrastaurin -0.039

TENT2 (UniProt Q6PIY7)
inactive: saracatinib 0.02

TBCCD1 (UniProt Q9NVR7)
inactive: [5] 0.049 | [2] -0.045 | [3] 0.152

TENT4B isoform 5 (UniProt Q8NDF8)
inactive: barasertib 0.085 | [5] 0.015 | sotrastaurin 0.032

TASOR2 (UniProt Q5VWN6)
inactive: barasertib 0.194 | [1] 0.126 | [5] 0.03 | saracatinib -0.036

TCF20 (UniProt Q9UGU0)
inactive: [4] -0.106 | barasertib 0.084 | volasertib 0.006 | [2] -0.02 | [3] -0.031 | saracatinib 0.038 | sotrastaurin 0.086

TFPT (UniProt P0C1Z6)
inactive: [4] -0.019 | barasertib 0.148 | volasertib 0.015 | saracatinib 0.005

TCEA2 (UniProt Q15560)
inactive: [1] -0.032 | [5] 0.131

TCOF1 isoform 3 (UniProt Q13428)
inactive: [4] -0.037 | barasertib 0.189 | volasertib -0.14 | [2] -0.244 | [3] -0.346 | sotrastaurin -0.119

TEAD3 (UniProt Q99594)
inactive: [1] -0.249 | [5] -0.018 | saracatinib 0.08 | sotrastaurin -0.009

TECPR1 isoform 4 (UniProt Q7Z6L1)
inactive: [4] -0.105 | barasertib -0.098 | volasertib -0.069 | [2] -0.092 | [3] 0.172 | saracatinib 0.092

TANC2 isoform 2 (UniProt Q9HCD6)
inactive: [5] 0.203 | [2] -0.084 | [3] -0.11 | saracatinib 0.142

Copied from above (10 entries):
TBCCD1 (UniProt Q9NVR7)
inactive: [5] 0.049 | [2] -0.045 | [3] 0.152

TENT4B isoform 5 (UniProt Q8NDF8)
inactive: barasertib 0.085 | [5] 0.015 | sotrastaurin 0.032

TASOR2 (UniProt Q5VWN6)
inactive: barasertib 0.194 | [1] 0.126 | [5] 0.03 | saracatinib -0.036

TCF20 (UniProt Q9UGU0)
inactive: [4] -0.106 | barasertib 0.084 | volasertib 0.006 | [2] -0.02 | [3] -0.031 | saracatinib 0.038 | sotrastaurin 0.086

TFPT (UniProt P0C1Z6)
inactive: [4] -0.019 | barasertib 0.148 | volasertib 0.015 | saracatinib 0.005

TCEA2 (UniProt Q15560)
inactive: [1] -0.032 | [5] 0.131

TCOF1 isoform 3 (UniProt Q13428)
inactive: [4] -0.037 | barasertib 0.189 | volasertib -0.14 | [2] -0.244 | [3] -0.346 | sotrastaurin -0.119

TEAD3 (UniProt Q99594)
inactive: [1] -0.249 | [5] -0.018 | saracatinib 0.08 | sotrastaurin -0.009

TECPR1 isoform 4 (UniProt Q7Z6L1)
inactive: [4] -0.105 | barasertib -0.098 | volasertib -0.069 | [2] -0.092 | [3] 0.172 | saracatinib 0.092

TANC2 isoform 2 (UniProt Q9HCD6)
inactive: [5] 0.203 | [2] -0.084 | [3] -0.11 | saracatinib 0.142

The list goes on.

TAF8, A0A0A0MRR3
inactive: saracatinib 0.052

TCN1 (UniProt P20061)
inactive: barasertib 0.168 | [1] 0.391 | [5] 0.013 | [2] 0.167 | [3] -0.074 | sotrastaurin 0.015

TCOF1 isoform 6 (UniProt Q13428)
inactive: [4] 0.036 | volasertib -0.153 | [5] 0.039 | saracatinib 0.088 | sotrastaurin -0.04

TBCA (UniProt E5RHG6)
inactive: [5] -0.187 | sotrastaurin 0.09

TEAD4 (UniProt Q15561)
inactive: barasertib 0.097

TEDC1 (UniProt Q86SX3)
inactive: [4] 0.103 | [1] 0.106 | volasertib -0.041 | [5] 0.019 | saracatinib -0.02 | sotrastaurin -0.037

TCF4 (UniProt P15884)
inactive: [4] -0.015 | [1] -0.017 | volasertib 0.126 | [5] 0.008 | [2] -0.011 | [3] 0.03 | saracatinib 0.021 | sotrastaurin -0.017

TAZ (UniProt Q16635)
inactive: [4] 0.026 | volasertib 0.007 | [2] -0.125 | [3] -0.125 | sotrastaurin -0.117

TBXAS1 isoform 3 (UniProt P24557)
inactive: sotrastaurin -0.034
